Construct, isoform or probe ends are uncertain for at least one entry. For some of these results: Weaker means in comparison with the reference protein, sequence or condition of that experiment. At least one verdict was read from the data and is not stated in words by the source. For some of these results: Where a protein sequence is shown, tags need not be part of it.
Assays:
Experiment in all cases: MST
[1] = target: T1, DExH1 (Arabidopsis thaliana) (UniProt F4ILR7); conditions: 3' tail rG4 preferred, EC50 only in figure; MST: 20 nM FAM-RNA; recombinant protein; residues 1-995; protein details: 6xHis-SUMO removed; label: 5'-FAM
T1 sequence (looked up): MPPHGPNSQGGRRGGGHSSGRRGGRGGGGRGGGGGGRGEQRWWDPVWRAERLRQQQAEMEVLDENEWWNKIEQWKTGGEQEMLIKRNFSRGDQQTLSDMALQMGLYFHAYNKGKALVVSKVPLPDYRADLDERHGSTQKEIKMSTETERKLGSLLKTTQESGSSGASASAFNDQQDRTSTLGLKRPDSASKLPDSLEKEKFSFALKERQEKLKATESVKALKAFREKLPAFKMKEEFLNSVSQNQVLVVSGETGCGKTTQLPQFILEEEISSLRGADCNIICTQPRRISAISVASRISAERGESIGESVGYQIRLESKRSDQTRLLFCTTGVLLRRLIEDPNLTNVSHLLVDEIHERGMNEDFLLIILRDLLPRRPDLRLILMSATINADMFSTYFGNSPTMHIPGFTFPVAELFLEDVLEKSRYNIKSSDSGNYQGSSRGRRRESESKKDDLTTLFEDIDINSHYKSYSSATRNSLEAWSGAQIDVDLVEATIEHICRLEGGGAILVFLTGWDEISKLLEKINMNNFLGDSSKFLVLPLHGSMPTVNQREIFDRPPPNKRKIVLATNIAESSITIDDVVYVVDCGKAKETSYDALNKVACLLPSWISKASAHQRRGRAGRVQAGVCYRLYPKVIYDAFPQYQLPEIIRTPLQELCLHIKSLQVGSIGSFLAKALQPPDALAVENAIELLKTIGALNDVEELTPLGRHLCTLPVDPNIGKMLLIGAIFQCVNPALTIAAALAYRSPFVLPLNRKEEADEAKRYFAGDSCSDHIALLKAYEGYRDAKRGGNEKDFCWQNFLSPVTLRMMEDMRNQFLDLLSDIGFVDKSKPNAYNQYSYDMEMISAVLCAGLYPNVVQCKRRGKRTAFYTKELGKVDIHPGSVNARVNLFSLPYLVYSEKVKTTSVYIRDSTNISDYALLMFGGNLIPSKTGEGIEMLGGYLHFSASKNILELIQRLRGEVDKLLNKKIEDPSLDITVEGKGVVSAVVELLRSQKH

The chains behind the UniProt entries cited, without tags or fusion partners.
UniProt P41376, whole entry: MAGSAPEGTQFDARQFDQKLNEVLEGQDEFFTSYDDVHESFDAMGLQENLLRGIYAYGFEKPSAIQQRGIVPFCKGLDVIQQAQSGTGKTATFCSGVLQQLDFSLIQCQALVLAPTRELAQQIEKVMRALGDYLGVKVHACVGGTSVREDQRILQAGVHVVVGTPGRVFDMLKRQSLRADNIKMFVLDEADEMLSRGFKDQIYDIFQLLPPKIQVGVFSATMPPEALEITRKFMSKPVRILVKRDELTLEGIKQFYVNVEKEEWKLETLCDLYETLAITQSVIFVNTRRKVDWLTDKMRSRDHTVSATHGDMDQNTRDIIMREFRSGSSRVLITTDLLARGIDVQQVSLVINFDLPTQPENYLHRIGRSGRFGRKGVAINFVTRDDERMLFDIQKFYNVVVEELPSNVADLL

[2] = target: T2, RH3 (Arabidopsis thaliana) (UniProt Q8L7S8); conditions: EC50 only in figure; MST: 20 nM FAM-RNA; recombinant protein; residues 1-748; protein details: N-terminal 6xHis-SUMO (retained); label: 5'-FAM
T2 sequence (looked up): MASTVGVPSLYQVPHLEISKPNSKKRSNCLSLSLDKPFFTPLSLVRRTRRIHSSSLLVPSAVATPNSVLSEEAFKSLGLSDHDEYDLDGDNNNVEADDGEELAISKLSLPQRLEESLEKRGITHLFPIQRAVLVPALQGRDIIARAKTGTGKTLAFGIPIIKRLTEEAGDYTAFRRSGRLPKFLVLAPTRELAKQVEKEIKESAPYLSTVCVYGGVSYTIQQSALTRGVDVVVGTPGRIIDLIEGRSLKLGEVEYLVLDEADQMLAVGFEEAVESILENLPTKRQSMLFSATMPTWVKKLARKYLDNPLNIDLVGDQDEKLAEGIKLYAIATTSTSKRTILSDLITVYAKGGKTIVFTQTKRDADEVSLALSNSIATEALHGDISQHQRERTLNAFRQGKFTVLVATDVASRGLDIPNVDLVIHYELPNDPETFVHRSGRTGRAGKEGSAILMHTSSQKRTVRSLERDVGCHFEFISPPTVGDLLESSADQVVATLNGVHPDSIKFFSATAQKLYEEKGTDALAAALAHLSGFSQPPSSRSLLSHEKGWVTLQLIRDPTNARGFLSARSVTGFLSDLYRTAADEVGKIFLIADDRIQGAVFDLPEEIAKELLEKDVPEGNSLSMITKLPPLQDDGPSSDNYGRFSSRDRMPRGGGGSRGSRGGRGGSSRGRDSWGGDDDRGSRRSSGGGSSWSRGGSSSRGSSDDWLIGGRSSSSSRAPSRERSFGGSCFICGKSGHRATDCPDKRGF

[3] = target: T3, RH53 (Arabidopsis thaliana) (UniProt Q9LUW5); conditions: EC50 only in figure; MST: 20 nM FAM-RNA; recombinant protein; residues 1-616; protein details: N-terminal 6xHis-SUMO (retained); label: 5'-FAM
T3 sequence (looked up): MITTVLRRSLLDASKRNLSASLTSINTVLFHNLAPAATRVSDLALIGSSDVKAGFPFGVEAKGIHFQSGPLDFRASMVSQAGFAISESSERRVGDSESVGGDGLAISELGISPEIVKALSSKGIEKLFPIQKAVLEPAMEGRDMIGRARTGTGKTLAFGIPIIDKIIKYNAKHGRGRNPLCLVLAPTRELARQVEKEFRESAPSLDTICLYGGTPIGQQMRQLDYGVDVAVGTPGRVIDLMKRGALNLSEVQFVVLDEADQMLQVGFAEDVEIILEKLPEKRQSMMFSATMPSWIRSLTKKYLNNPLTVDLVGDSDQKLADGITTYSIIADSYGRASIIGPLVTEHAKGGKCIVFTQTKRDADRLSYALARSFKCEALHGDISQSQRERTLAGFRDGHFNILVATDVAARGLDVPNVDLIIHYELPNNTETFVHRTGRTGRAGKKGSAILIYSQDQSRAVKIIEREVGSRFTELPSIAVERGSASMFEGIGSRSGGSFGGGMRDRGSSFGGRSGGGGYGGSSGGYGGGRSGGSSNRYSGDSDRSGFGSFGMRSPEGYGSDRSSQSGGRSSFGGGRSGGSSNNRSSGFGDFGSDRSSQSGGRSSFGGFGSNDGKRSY

[4] = target: eIF4A (eIF4A1) (Arabidopsis thaliana) (UniProt P41376); conditions: EC50 only in figure; MST: 20 nM FAM-RNA; recombinant protein; residues 1-412; protein details: 6xHis-SUMO removed; label: 5'-FAM

## UUUUUUUUUUUUUUUGGGAGGGAAGGGGAAGGGG [SG4 (5' tail rG4)]
[1]
  binding result: binds more weakly
[2]
  binding result: binds
[3]
  binding result: binds
[4]
  binding result: binds
